Results published in the supplement of paper PMC12462457.
Structures can show the parent of a compound that is named as a salt. ± gives the standard deviation of the averaged measurements. The list shows a part of the results. Repeats in this data set agree poorly, so a single value says little.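 Cell counts came from imaging DAPI-stained nuclei, excluding as dead any cells lacking phalloidin-stained cytoplasm. Counts per well were normalized to the median vehicle-well count on that plate, and the values were averaged over two replicate plates.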

System: OVCAR8
Experiment: cell count relative to DMSO vehicle (fold change); higher = more surviving senescent cells (less killing)
Conditions: senescence inducer: cisplatin 10 µM 48 h, then 6 d recovery (CP senescent), exposure time 24 h

SMILES | cell count (compound dose 1 µM) | cell count (compound dose 5 µM)
C=C(C)[C@@H]1CC[C@]2(C)CC[C@]3(C)[C@H](CC[C@@H]4[C@@]5(C)CC[C@H](O)C(C)(C)[C@@H]5CC[C@]43C)[C@@H]12 | 1.03 ± 0.079 | 0.619 ± 0.44
CN(C)C(=O)c1cc2cnc(Nc3ccc(NC(=O)CCCCCCCN=C=S)cc3)nc2n1C1CCCC1 | 0.897 ± 0.066 | 0.35 ± 0.099
O=C1Nc2ccc(I)cc2/C1=C/c1cc(Br)c(O)c(Br)c1 | 0.772 ± 0.41 | 1.13 ± 0.076
CON(C)C(=O)N1N=C(c2cc(F)ccc2F)S[C@@]1(CCCN)c1ccccc1 [Filanesib] | 1.11 ± 0.19 | 1.09 ± 0.056
COC(=O)[C@]12OC[C@]34[C@H]([C@@H](O)[C@@H]1O)[C@@]1(C)CC(=O)C(O)=C(C)[C@@H]1C[C@H]3OC(=O)[C@H](OC(=O)C=C(C)C)[C@@H]24 [Brusatol] | 0.631 ± 0.035 | 0.332 ± 0.017
NC(=O)N1c2ccccc2CC(=O)c2ccccc21 | 1.13 ± 0.17 | 1.12 ± 0.35
CCNC(=O)c1noc(-c2cc(C(C)C)c(O)cc2O)c1-c1ccc(CN2CCOCC2)cc1 [Luminespib] | 0.492 ± 0.061 | 0.357 ± 0.081
NS(=O)(=O)Cc1noc2ccccc12 [Zonisamide] | 1.175 ± 0.0035 | 1.103 ± 0.0064
CN1CCC(CNc2ccc3ncc(-c4cccc(OC(F)(F)F)c4)n3n2)CC1 [SGI-1776 free base] | 1.31 ± 0.043 | 0.865 ± 0.15
COc1cc2c(cc1OC)[C@@H]1Cc3ccc(OC)c(OC)c3CN1CC2 | 1.4 ± 0.42 | 0.877 ± 0.29
O=C(O)C[C@H](O)C[C@H](O)/C=C/c1c(C2CC2)nc2ccccc2c1-c1ccc(F)cc1 [Pitavastatin (Calcium)] | 0.903 ± 0.1 | 1.04 ± 0.23
C[C@@H]1O[C@@H](OC[C@H]2O[C@@H](Oc3cc(O)c4c(c3)O[C@H](c3ccc(O)c(O)c3)CC4=O)[C@H](O)[C@@H](O)[C@@H]2O)[C@H](O)[C@H](O)[C@H]1O [Eriocitrin] | 1.2 ± 0.092 | 1.01 ± 0.098
Cc1ccc(NCCN(C)CCNc2ccnc3cc(Cl)ccc23)c2c(=O)c3ccccc3sc12 | 1.09 ± 0.075 | 1.04 ± 0.07
N#CCCCSC(=N)N [Kevetrin (hydrochloride)] | 1.16 ± 0.14 | 1.09 ± 0.11
COc1nc(C)cnc1NS(=O)(=O)c1cccnc1-c1ccc(-c2nnco2)cc1 [Zibotentan] | 0.813 ± 0.041 | 0.88 ± 0.035
O=C(NCc1ccc2c(c1)OCO2)c1c(Cl)cccc1Cl | 1.13 ± 0.019 | 1.15 ± 0.067
Nc1ccccc1NC(=O)CCCCCCC(=O)Nc1ccccc1 | 1.02 ± 0.018 | 0.897 ± 0.038
NC(=O)Nc1sc(-c2ccc(F)cc2)cc1C(N)=O | 1.01 ± 0.15 | 0.598 ± 0.39
COC(=O)CCCCC(=O)NCCN1C(=O)c2cccc3c(Sc4ccc(Br)cc4)ccc(c23)C1=O | 1.08 ± 0.08 | 0.987 ± 0.16
COc1cc2c(cc1OC)-c1c(C)c3ccc(OC)c(OC)c3c[n+]1CC2 [Dehydrocorydaline] | 1.22 ± 0.18 | 1.13 ± 0.16
Cc1nn(C)c(COc2ccc(N3CCN(S(=O)(=O)N(C)C)CC3)cc2)c1-c1cccc2c(CCCOc3cccc4ccccc34)c(C(=O)O)n(CCN3CCOCC3)c12 | 1.24 ± 0.16 | 1.14 ± 0.027

SMILES | cell count (compound dose 1 µM) | cell count (compound dose 5 µM)
C[C@@H]1O[C@@H](OC[C@H]2O[C@@H](Oc3c(-c4ccc(O)c(O)c4)oc4cc(O)cc(O)c4c3=O)[C@H](O)[C@@H](O)[C@@H]2O)[C@H](O)[C@H](O)[C@H]1O [Rutin] | 0.766 ± 0.031 | 0.826 ± 0.14
Cc1ccc(C(=O)N(CCCN)[C@@H](c2nc3cc(Cl)ccc3c(=O)n2Cc2ccccc2)C(C)C)cc1 [Ispinesib] | 0.939 ± 0.028 | 0.272 ± 0.093
C[C@@H]1O[C@@H](O[C@H]2[C@H](O[C@H]3CC[C@@]4(C)[C@@H](CC[C@]5(C)[C@@H]4CC=C4[C@@H]6CC(C)(C)CC[C@]6(C(=O)O)CC[C@]45C)[C@]3(C)CO)OC[C@H](O[C@@H]3O[C@H](CO)[C@@H](O)[C@H](O)[C@H]3O)[C@@H]2O)[C@H](O)[C@H](O)[C@H]1O [Pulsatilla saponin D] | 1.049 ± 0.0057 | 0.0575 ± 0.056
CC(C)c1cnn2c(NCc3ccccc3)cc(NC[C@H]3CCNC[C@@H]3O)nc12 [Samuraciclib (hydrochloride)] | 1.42 ± 0.064 | 1.24 ± 0.059
C=C1CCC[C@]2(C)C[C@]3(O)OC(=O)C(C)=C3C[C@@H]12 [Atractylenolide III] | 1.16 ± 0.3 | 1.02 ± 0.33
O=c1c(O[C@@H]2O[C@@H](CO)[C@H](O)[C@H]2O)c(-c2ccc(O)c(O)c2)oc2cc(O)cc(O)c12 [Avicularin] | 1.371 ± 0.005 | 1.05 ± 0.022
COc1cc2ncnc(Nc3ccc(F)c(Cl)c3)c2cc1NC(=O)/C=C/CN1CCCCC1 | 1.02 ± 0.024 | 0.514 ± 0.14
CC(=O)Oc1cc(C)c(OC(C)=O)c2ccccc12 [Vitamin K4] | 1.11 ± 0.093 | 0.983 ± 0.092
COCCCOc1ccnc(C[S+]([O-])c2nc3ccccc3[nH]2)c1C (configuration not stated) [Rabeprazole (sodium)] | 0.9625 ± 0.005 | 0.707 ± 0.37
CC(C)=CCC/C(C)=C\CO [Nerol] | 0.906 ± 0.072 | 0.622 ± 0.15
CC[C@H](C)C(=O)O[C@H]1C[C@H](O)C=C2C=C[C@H](C)[C@H](CC[C@@H](O)C[C@@H](O)CC(=O)O)[C@H]21 [Pravastatin (sodium)] | 0.807 ± 0.14 | 0.883 ± 0.17
Cc1nc(C)c(C)nc1C [Tetramethylpyrazine] | 1.15 ± 0.061 | 0.842 ± 0.044
Cc1cc([N+](=O)[O-])c(NS(=O)(=O)c2cccc(C(=O)O)c2)cc1-c1cccnc1 [Alofanib] | 1.17 ± 0.23 | 0.738 ± 0.17
O=S1(=O)CCN(CN2CCS(=O)(=O)NC2)CN1 [Taurolidine] | 0.879 ± 0.13 | 0.577 ± 0.18
Cc1ccc(S(=O)(=O)/C=C/C#N)cc1 | 0.951 ± 0.035 | 0.244 ± 0.1
Nc1ccccc1NC(=O)c1ccc(CNc2nccc(-c3cccnc3)n2)cc1 [Mocetinostat (MGCD0103)] | 0.755 ± 0.0078 | 0.337 ± 0.17
O=C1C(O)=C(O)C(=O)C(O)=C1O | 1.44 ± 0.53 | 0.941 ± 0.15
Oc1cc(O)cc(/C=C/c2ccc(O)c(O)c2)c1 [Piceatannol] | 1.04 ± 0.044 | 1.19 ± 0.22
CCN1CCN(c2ccc(Nc3cc(N(C)C(=O)Nc4c(Cl)c(OC)cc(OC)c4Cl)ncn3)cc2)CC1 [Infigratinib] | 0.928 ± 0.033 | 0.86 ± 0.09
CC[C@@]1(O)C(=O)OCc2c1cc1n(c2=O)Cc2cc3c(CN(C)C)c(O)ccc3nc2-1 [Topotecan (Hydrochloride)] | 0.58 ± 0.047 | 0.601 ± 0.094

Some of the entries above, reformatted:
SMILES	cell count (compound dose 1 µM)	cell count (compound dose 5 µM)
COc1cc2c(cc1OC)[C@@H]1Cc3ccc(OC)c(OC)c3CN1CC2	1.4 ± 0.42	0.877 ± 0.29
C[C@@H]1O[C@@H](O[C@H]2[C@H](O[C@H]3CC[C@@]4(C)[C@@H](CC[C@]5(C)[C@@H]4CC=C4[C@@H]6CC(C)(C)CC[C@]6(C(=O)O)CC[C@]45C)[C@]3(C)CO)OC[C@H](O[C@@H]3O[C@H](CO)[C@@H](O)[C@H](O)[C@H]3O)[C@@H]2O)[C@H](O)[C@H](O)[C@H]1O [Pulsatilla saponin D]	1.049 ± 0.0057	0.0575 ± 0.056
